# Experimental data taken from paper PMC8990461.
# No constants are given. Whether binding was seen depends on the method and setting. In cells and extracts the contact can be indirect. Binding calls can cover weak binding; strength is not graded here.
# B1: ENKUR (Enkurin), overexpressed in HCC cells (protein, UniProt Q8TC29 1-256)
# chain: MDPTCSSECIYNLIPSDLKEPPQPPRYISIFKATVKDDMQKAKTAMKTMGPAKVEVPSPKDFLKKHSKEKTLPPKKNFDRNVPKKPAVPLKTDHPVMGIQSGKNFINTNAADIIMGVAKKPKPIYVDKRTGDKHDLEPSGLVPKYINKKDYGVTPEYICKRNEEIKKAQEDYDRYIQENLKKAAMKRLSDEEREAVLQGLKKNWEEVHKEFQSLSVFIDSIPKKIRKQRLEEEMKQLEHDIGIIEKHKIIYIANNA
# Target: myosin tail domain of MYH9
# Assay: co-IP; Pierce Co-Immunoprecipitation kit; 5 mg protein of HCC cell lysate with 10 µg antibody or IgG (negative control), 4 °C overnight; eluate read by Western blot
binder,measurement,value
B1,binding,binds
